Experimental data reported in patent US8557833B2, “Aminopyrimidines useful as kinase inhibitors” (priority 2005, dated 2013).
At least one compound was matched to its structure with a doubt left.

Biological target: T1, Aurora-2 (Aurora A) (Homo sapiens, UniProt O14965)
T1 sequence (O14965 1-403): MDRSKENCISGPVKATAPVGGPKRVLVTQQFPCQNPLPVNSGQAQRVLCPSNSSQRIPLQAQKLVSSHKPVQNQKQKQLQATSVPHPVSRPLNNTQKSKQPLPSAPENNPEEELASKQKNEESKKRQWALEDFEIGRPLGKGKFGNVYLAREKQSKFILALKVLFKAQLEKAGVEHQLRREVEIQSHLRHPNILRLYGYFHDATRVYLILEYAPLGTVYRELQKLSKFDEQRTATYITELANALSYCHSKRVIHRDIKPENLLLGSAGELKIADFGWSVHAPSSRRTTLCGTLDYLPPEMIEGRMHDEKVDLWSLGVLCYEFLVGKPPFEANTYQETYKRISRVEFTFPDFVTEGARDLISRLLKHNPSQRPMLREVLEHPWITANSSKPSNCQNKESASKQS
Experiment: Aurora-2 (Aurora A) inhibition assay, coupled enzyme
Assay type: biochemical
Conditions: 400 μM ATP, 570 μM Kemptide, 30° C., 40 nM Aurora-2
Protocol: Assays were carried out in a mixture of 100 mM Hepes (pH7.5), 10 mM MgCl2, 1 mM DTT, 25 mM NaCl, 2.5 mM phosphoenolpyruvate, 300 μM NADH, 30 μg/ml pyruvate kinase and 10 μg/ml lactate dehydrogenase. […] Assays were carried out at 30° C. and in the presence of 40 nM Aurora-2.
An assay stock buffer solution was prepared containing all of the reagents listed above, with the exception of Aurora-2 and the test compound of interest. […] The plate was preincubated for 10 minutes at 30° C. and the reaction initiated by addition of 10 μl of Aurora-2. Initial reaction rates were determined with a Molecular Devices SpectraMax Plus plate reader over a 10 minute time course. IC50 and Ki data were calculated from non-linear regression analysis using the Prism software package (GraphPad Prism version 3.0cx for Macintosh, GraphPad Software, San Diego Calif., USA).

Cc1cc(Nc2cc(N3CCC3)nc(Sc3ccc(NC(=O)c4cccc(F)c4F)cc3)n2)[nH]n1 [Compound I-7]
Ki: 1 nM
